Measurements taken from PMC12603192.
Results are given in words; binding and its absence hold for the method and conditions named. In cells and extracts the contact can be indirect. Here binding means that the protein was enriched with, or labelled near, the bait; the list need not be complete. For some assays here: No binding means not detected with the bait. Tags and fused reporters may be left off the sequences shown.

By UniProt entry, the sequences of proteins in these tests, tags left out. Residues count along the entry.
UniProt P36894, residues 24-532: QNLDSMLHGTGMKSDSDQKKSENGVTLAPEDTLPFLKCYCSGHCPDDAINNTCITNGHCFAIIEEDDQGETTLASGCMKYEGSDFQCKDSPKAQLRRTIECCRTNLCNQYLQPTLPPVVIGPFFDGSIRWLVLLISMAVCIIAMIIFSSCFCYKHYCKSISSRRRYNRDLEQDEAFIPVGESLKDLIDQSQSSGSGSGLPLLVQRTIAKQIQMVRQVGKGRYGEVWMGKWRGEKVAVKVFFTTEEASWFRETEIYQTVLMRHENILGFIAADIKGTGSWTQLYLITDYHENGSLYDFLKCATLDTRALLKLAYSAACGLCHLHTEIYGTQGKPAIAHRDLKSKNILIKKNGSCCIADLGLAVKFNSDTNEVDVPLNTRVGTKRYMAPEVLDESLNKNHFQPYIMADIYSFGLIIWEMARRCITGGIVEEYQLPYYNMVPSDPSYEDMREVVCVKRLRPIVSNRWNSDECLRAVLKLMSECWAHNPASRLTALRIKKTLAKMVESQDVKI
UniProt Q15075: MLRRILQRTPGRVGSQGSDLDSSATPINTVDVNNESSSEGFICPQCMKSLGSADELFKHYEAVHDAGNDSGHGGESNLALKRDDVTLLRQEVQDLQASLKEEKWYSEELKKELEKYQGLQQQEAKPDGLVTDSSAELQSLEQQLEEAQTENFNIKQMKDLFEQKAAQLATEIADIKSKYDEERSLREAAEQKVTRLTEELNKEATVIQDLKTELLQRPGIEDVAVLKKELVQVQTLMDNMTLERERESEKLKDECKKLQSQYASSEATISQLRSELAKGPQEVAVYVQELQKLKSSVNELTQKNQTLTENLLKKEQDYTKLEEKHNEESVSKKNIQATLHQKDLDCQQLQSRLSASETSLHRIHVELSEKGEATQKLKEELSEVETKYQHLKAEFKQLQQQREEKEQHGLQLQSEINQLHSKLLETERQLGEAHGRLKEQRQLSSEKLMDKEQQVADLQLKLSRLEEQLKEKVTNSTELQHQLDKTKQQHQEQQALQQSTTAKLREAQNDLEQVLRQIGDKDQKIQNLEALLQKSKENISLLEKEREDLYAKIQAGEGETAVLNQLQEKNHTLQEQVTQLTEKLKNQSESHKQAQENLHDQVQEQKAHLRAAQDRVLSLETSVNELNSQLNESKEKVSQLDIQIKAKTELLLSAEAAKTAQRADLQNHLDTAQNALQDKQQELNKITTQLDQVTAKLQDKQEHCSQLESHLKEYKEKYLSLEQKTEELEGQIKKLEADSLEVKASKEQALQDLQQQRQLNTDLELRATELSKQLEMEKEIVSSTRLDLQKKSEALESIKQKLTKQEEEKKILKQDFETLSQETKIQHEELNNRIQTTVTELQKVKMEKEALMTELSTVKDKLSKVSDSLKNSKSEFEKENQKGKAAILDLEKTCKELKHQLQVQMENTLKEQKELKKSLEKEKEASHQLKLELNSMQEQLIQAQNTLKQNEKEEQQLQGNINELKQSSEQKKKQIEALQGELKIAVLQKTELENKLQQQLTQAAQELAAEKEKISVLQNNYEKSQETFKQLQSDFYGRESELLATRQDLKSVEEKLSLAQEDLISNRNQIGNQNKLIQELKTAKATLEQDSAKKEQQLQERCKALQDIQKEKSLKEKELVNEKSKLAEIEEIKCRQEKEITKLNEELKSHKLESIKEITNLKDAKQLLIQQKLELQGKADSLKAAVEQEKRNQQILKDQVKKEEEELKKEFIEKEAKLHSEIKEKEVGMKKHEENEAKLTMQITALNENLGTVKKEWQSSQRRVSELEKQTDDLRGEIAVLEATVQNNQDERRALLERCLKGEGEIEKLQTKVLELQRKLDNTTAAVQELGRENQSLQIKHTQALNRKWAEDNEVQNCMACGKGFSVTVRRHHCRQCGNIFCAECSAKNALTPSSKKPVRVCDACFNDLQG
UniProt P37173, residues 23-567: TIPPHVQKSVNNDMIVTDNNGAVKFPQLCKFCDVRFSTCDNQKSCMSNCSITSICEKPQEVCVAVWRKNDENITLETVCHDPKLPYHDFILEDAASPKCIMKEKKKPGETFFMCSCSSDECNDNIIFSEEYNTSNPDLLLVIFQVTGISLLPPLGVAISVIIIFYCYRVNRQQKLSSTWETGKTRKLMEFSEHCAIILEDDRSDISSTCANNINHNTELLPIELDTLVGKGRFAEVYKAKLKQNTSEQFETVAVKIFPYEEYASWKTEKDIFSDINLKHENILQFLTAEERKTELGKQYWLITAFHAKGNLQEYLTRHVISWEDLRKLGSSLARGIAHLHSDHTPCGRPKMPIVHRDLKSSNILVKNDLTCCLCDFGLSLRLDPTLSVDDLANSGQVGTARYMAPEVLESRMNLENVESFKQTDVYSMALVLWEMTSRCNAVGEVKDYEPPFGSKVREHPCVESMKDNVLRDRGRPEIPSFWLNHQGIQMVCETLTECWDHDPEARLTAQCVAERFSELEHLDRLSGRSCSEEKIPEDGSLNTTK
UniProt P63010: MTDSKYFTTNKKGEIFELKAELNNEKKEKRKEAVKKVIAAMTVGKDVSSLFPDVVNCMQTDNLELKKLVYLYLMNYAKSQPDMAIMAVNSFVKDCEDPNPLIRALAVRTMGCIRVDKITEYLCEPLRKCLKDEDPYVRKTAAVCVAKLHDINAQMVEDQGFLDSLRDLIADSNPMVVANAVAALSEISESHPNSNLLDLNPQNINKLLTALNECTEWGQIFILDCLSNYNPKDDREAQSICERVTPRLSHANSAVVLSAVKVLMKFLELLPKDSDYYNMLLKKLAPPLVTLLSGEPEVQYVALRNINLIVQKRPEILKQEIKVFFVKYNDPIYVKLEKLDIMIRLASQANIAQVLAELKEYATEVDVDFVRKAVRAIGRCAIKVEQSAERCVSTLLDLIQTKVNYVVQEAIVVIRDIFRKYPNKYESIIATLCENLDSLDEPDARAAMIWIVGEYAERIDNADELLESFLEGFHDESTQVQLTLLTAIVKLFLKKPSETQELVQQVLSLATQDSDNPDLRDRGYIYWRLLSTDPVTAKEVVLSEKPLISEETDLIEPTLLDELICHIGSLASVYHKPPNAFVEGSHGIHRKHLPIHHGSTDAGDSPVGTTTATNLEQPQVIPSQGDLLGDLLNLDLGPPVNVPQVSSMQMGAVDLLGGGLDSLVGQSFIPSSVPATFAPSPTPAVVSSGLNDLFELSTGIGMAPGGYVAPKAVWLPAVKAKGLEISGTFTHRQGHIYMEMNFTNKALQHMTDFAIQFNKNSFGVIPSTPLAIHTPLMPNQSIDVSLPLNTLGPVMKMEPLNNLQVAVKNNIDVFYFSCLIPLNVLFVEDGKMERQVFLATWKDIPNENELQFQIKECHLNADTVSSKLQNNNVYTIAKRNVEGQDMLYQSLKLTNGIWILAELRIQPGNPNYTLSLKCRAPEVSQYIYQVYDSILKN

T1: HA-MARCH2 stably expressed in A549 cells (human) (UniProt Q9P0N8)
T1 sequence: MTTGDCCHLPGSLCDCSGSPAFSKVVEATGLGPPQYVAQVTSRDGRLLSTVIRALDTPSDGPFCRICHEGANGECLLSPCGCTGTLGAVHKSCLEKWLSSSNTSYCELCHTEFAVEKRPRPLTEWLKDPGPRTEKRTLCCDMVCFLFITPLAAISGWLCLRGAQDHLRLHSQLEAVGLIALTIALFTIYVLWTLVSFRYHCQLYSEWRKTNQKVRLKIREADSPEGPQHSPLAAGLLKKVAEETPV


What was measured:
[1] = biological target: T1, HA-MARCH2 stably expressed in A549 cells (human); experiment: affinity purification with mass spectrometry; as a1, but cells not treated with TGF-β
[2] = biological target: T1, HA-MARCH2 stably expressed in A549 cells (human); experiment: affinity purification with mass spectrometry; HA-MARCH2-interacting proteins isolated from A549 cells stably expressing HA-MARCH2, TGF-β-treated; gel bands, in-gel trypsin digestion, LC-MS/MS

Molecule | binding [2] | binding [1]
BMP receptor type 1 A (from UniProt P36894 24-532) | binds | no binding (only cells without TGF-β treatment)
EEA1 (from UniProt Q15075 1-1411) | binds | –

Continued, in another order:

binding [2] | Molecule | binding [1]
binds | endogenous TGF-β type II receptor (from UniProt P37173 23-567) | no binding (only cells without TGF-β treatment)
binds | β subunit of the AP-2 complex (from UniProt P63010 1-937) | –
binds | endogenous ALK5 (receptor, UniProt P36897 34-503) LQCFCHLCTKDNFTCVTDGLCFVSVTETTDKVIHNSMCIAEIDLIPRDRPFVCAPSSKTGSVTTTYCCNQDHCNKIELPTTVKSSPGLGPVELAAVIAGPVCFVCISLMLMVYICHNRTVIHHRVPNEEDPSLDRPFISEGTTLKDLIYDMTTSGSGSGLPLLVQRTIARTIVLQESIGKGRFGEVWRGKWRGEEVAVKIFSSREERSWFREAEIYQTVMLRHENILGFIAADNKDNGTWTQLWLVSDYHEHGSLFDYLNRYTVTVEGMIKLALSTASGLAHLHMEIVGTQGKPAIAHRDLKSKNILVKKNGTCCIADLGLAVRHDSATDTIDIAPNHRVGTKRYMAPEVLDDSINMKHFESFKRADIYAMGLVFWEIARRCSIGGIHEDYQLPYYDLVPSDPSVEEMRKVVCEQKLRPNIPNRWQSCEALRVMAKIMRECWYANGAARLTALRIKKTLSQLSQQEGIKM | no binding (only cells without TGF-β treatment)
